No constants are given. Whether binding was seen depends on the method and setting. Binding seen in cells or lysates may run through a third protein. Some results given as binding are weak or reduced against the parent protein; the word gives no strength.

Chains of the proteins cited; added tags and fusions are not shown.
UniProt P28033: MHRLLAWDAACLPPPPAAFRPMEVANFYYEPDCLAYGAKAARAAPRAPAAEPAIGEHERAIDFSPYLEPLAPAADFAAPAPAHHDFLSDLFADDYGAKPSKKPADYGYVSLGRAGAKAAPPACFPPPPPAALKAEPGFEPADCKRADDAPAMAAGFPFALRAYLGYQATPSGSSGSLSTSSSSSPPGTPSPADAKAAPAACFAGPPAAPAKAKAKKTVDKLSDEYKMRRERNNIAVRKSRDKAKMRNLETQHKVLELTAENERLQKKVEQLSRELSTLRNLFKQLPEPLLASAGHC

The target of assay [1] is T1, USP1, overexpressed in HEK293 cells (pcDNA3.1 Usp1) (UniProt Q8BJQ2).
T1 sequence: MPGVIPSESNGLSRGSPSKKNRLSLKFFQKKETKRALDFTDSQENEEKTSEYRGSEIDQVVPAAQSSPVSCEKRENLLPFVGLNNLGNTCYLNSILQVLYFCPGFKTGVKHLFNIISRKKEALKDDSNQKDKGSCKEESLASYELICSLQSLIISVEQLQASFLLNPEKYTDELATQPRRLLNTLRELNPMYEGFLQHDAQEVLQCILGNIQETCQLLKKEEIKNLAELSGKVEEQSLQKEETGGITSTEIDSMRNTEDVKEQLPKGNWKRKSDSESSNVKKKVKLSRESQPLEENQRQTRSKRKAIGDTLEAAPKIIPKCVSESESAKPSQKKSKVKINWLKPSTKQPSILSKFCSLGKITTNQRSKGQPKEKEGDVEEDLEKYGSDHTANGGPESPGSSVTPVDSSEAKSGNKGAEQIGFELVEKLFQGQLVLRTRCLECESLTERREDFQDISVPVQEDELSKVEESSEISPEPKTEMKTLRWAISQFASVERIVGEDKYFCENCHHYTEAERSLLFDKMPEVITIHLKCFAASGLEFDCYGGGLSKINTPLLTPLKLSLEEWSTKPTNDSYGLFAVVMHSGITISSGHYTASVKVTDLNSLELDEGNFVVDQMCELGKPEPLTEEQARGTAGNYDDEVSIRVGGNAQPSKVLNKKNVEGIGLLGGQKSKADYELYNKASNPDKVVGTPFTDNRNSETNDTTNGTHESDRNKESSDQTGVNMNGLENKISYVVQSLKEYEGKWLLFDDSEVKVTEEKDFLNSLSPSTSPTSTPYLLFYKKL
In words: co-IP; both proteins overexpressed in HEK293 cells; lysates immunoprecipitated using IgG and USP1 antibodies, western blot.

Assay [2] concerns the target T2, ubiquitin-specific protease 1 (USP1), endogenous in AML12 cells (mouse (endogenous in AML12)) (UniProt Q8BJQ2).
T2 sequence: T1 sequence
In words: condition: only AML12 cells treated with ML323 for 48 h (20 μM by the methods); co-IP; endogenous proteins; AML12 cells treated with ML323 for 48 h, lysates immunoprecipitated using IgG and USP1 antibodies.

Assay [3] addresses T2, ubiquitin-specific protease 1 (USP1), endogenous in AML12 cells (mouse (endogenous in AML12)). In words: co-IP; endogenous proteins; AML12 cell lysates immunoprecipitated using IgG and USP1 antibodies, overnight at 4 °C, western blot. On the technique in general: In western blotting, separated proteins are transferred to a membrane and probed.

In the case of “C/EBPβ, overexpressed in HEK293 cells (pcDNA3.1 Cebpb) (from UniProt P28033 1-296)”, in assay [1], the binding entry is listed as “binds”. For the substance “CCAAT/enhancer-binding protein beta (C/EBPβ), endogenous in AML12 cells (from UniProt P28033 1-296)”, the binding entry was “no binding” in assay [2] and “binds” in assay [3].

The record behind these values is publication PMC10681981.
